Assay results reported in US4159979 (dated 1979).

Experiment: general procedure: peptide synthesis; Boc-Asn-resin; Boc-Gly-resin; DCC/HONb active esters
Conditions: coupling step

| Substance | step yield [%] |
| --- | --- |
| Boc-Glu(OBzl)-Asn-Lys(Xys)-Pro-OH | 69 |
| Boc-Leu-Tyr-Glu(OBzl)-Asn-Lys(Xys)-Pro-OH | 88.2 |
| Boc-Tyr-Glu(OBzl)-Asn-Lys(Xys)-Pro-OH | 93.4 |
| Z-Arg(MBS)-Arg(MBS)-Pro-Tyr-Ile-Leu-Obu^t | 74.5 |
| Z-pGlu-Leu-Tyr-Glu(OBzl)-Asn-Lys(Xys)-Pro-OH | 85.4 |
